The conditions of data set [1]: primary refrigerant, Table 9; cited from earlier work.
A further data set can be described thus: ODP. The settings on record: Table 2.

For the compound `F/C=C/C(F)(F)F` (single isomer, unassigned) [R1234ze(E), trans isomer of 1,3,3,3-tetrafluoropropene], the “GWP Primary” value in data set [1] is listed as under 1.
As to `FC(F)OCC(F)(F)C(F)F` [Compound 1, 3-(difluoromethoxy)-1,1,2,2-tetrafluoropropane], the ODP in “ODP” stood at 0.
Still for that read-out and setting: with `FC(F)OCC(F)(F)C(F)(F)F` [Compound 2, 3-(difluoromethoxy)-1,1,1,2,2-pentafluoropropane] the figure was 0.
In the data set “ODP”, `FC(F)OC(C(F)(F)F)C(F)(F)F` [Compound 3, 2-(difluoromethoxy)-1,1,1,3,3,3-hexafluoropropane] displayed an ODP of 0.
On the same count and under the same terms, with `FC(F)OCC(F)(F)C(F)(F)C(F)(F)F` [Compound 4, 4-(difluoromethoxy)-1,1,1,2,2,3,3-heptafluorobutane] the figure was 0.
Turning to `C=C(F)C(F)(F)F` [Compound R1234yf, 2,3,3,3-tetrafluoropropene], in data set [1], the “GWP Primary” value is under 1.
For the compound `CCC` [Propane, propane], the “GWP Primary” value in data set [1] is on record as 3.
